Data on three molecules can be found in US20240309109A1.

Sequences of proteins named here, by UniProt entry; tags and fusion partners are left off. A change or cut given only in a name is not applied to a line headed by its entry. A line that says so, or that is headed by a name, gives the form on record, which may keep a tag or linker.
Rhesus CD38 on PBMCs (Lymphocytes) (H9ZFL1, form named): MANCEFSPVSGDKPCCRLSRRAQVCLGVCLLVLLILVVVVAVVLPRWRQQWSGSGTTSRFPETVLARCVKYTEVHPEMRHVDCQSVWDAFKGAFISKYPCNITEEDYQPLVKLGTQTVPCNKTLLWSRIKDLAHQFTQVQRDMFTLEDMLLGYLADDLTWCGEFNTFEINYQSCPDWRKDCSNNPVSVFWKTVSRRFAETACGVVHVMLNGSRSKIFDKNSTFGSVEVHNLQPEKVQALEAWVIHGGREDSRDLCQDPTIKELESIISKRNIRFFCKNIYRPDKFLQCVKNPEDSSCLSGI

The target in assay [1] is Rhesus CD38 on PBMCs (Lymphocytes) (Macaca mulatta) (UniProt H9ZFL1). Description: FACS, IgG1 format, lymphocytes (PBMC fraction); column printed 'Rhesus' on the sheet, the legend says cynomolgus. (A flow cytometer gives signals particle by particle.)
In assay [2] the target is Rhesus CD38 on Erythrocytes (Macaca mulatta) (UniProt H9ZFL1). Description: FACS, IgG1 format, erythrocytes; column printed 'Rhesus' on the sheet, the legend says cynomolgus.
Assay [3] has as its target Rhesus CD38 on PBMCs (Lymphocytes) (Macaca mulatta) (UniProt H9ZFL1). Description: FACS, Fab format, rhesus lymphocytes (PBMC fraction).
Assay [4] addresses Rhesus CD38 on Erythrocytes (Macaca mulatta) (UniProt H9ZFL1). Description: FACS, Fab format, rhesus erythrocytes.
The target is the same in assay [5]. Description: FACS, Fab format, rhesus erythrocytes; column taken from the order of panel A [Continued].
For assay [6], the target named is Rhesus CD38 on PBMCs (Lymphocytes) (Macaca mulatta) (UniProt H9ZFL1). Description: FACS, Fab format, rhesus lymphocytes (PBMC fraction); column taken from the order of panel A [Continued].

These are yes or no findings as the source states them, for the method shown. Some entries that bind do so weakly or less than the wild type.

B1: MOR03087 IgG1 (antibody, V domains shown)
VH: QVQLVESGGGLVQPGGSLRLSCAASGFTFSSYYMNWVRQAPGKGLEWVSGISGDPSNTYYADSVKGRFTISRDNSKNTLYLQMNSLRAEDTAVYYCARDLPLVYTGFAYWGQGTLVTVSS
VL: DIELTQPPSVSVAPGQTARISCSGDNLRHYYVYWYQQKPGQAPVLVIYGDSKRPSGIPERFSGSNSGNTATLTISGTQAEDEADYYCQTYTGGASLVFGGGTKLTVLG
As for B1, the binding result in assay [1] and in assay [2] was “binds” in each case.

B2: MOR03087 Fab (Fab, V domains shown)
VH: QVQLVESGGGLVQPGGSLRLSCAASGFTFSSYYMNWVRQAPGKGLEWVSGISGDPSNTYYADSVKGRFTISRDNSKNTLYLQMNSLRAEDTAVYYCARDLPLVYTGFAYWGQGTLVTVSS
VL: DIELTQPPSVSVAPGQTARISCSGDNLRHYYVYWYQQKPGQAPVLVIYGDSKRPSGIPERFSGSNSGNTATLTISGTQAEDEADYYCQTYTGGASLVFGGGTKLTVLG
In the case of B2, the binding result in assay [3] and in assay [4] was “binds” in each case.

B3: MOR03088 Fab (Fab, V domains shown)
VH: QVQLVESGGGLVQPGGSLRLSCAASGFTFSSYAMNWVRQAPGKGLEWVSGISSWGSSTYYADSVKGRFTISRDNSKNTLYLQMNSLRAEDTAVYYCAREDGSYMTDYFAYWGQGTLVTVSS
VL: DIELTQPPSVSVAPGQTARISCSGDNIGHYYVSWYQQKPGQAPVLVIYSDSNRPSGIPERFSGSNSGNTATLTISGTQAEDEADYYCQSYNGTYVFGGGTKLTVLG
As for B3, the binding entry in assay [5] and in assay [6] was “binds” throughout.
